From the supplement of paper PMC9015667
Structures can show the parent of a compound that is named as a salt. This is one part of the list. Many values rest on one well or one pass, so single values are uncertain.

Experiments:
Assay in all cases: reduction in cell viability relative to untreated/vehicle; higher = more growth inhibition
Conditions in all cases: 200 nM; 72 h
M229P = test system: M229P (parental melanoma line)
M229R = test system: M229R (matched melanoma line resistant to BRAF inhibitors)
M238P = test system: M238P (parental melanoma line)
M238R = test system: M238R (matched melanoma line resistant to BRAF inhibitors)
M249P = test system: M249P (parental melanoma line)
M249R = test system: M249R (matched melanoma line resistant to BRAF inhibitors)
UACC62P = test system: UACC62P (parental melanoma line)
UACC62R = test system: UACC62R (matched melanoma line resistant to BRAF inhibitors)

| SMILES | reduction in cell viability (M229P) [%] | reduction in cell viability (M229R) [%] | reduction in cell viability (M238P) [%] | reduction in cell viability (M238R) [%] | reduction in cell viability (M249P) [%] | reduction in cell viability (M249R) [%] | reduction in cell viability (UACC62P) [%] | reduction in cell viability (UACC62R) [%] |
| --- | --- | --- | --- | --- | --- | --- | --- | --- |
| Cc1cccc(-c2[nH]c(C(C)(C)C)nc2-c2ccc3c(c2)OCO3)n1 | < 0 | < 0 | 2.94 | < 0 | 25.1 | < 0 | < 0 | 8.16 |
| CC(=O)O[C@H]1C[C@@H]2CC[C@@H]3[C@H](CC[C@@]4(C)[C@H]3C[C@H]([N+]3(C)CCCCC3)[C@@H]4OC(C)=O)[C@@]2(C)C[C@@H]1N1CCCCC1 [Vecuronium bromide] | < 0 | < 0 | < 0 | < 0 | < 0 | < 0 | < 0 | < 0 |
| CC1=C(C(=O)Nc2cc3cn[nH]c3cc2F)C(c2ccc(C(F)(F)F)cc2)CC(=O)N1 (configuration not stated) | < 0 | < 0 | < 0 | < 0 | < 0 | < 0 | < 0 | < 0 |
| Cc1cc(CS(=O)(=O)c2ccccc2)cc(OCc2ccc(CN3CCC[C@@H]3CO)cc2)c1 | < 0 | < 0 | < 0 | < 0 | < 0 | < 0 | < 0 | < 0 |
| COc1cnc(NS(=O)(=O)c2ccc(N)cc2)nc1 [Sulfameter] | < 0 | < 0 | < 0 | < 0 | < 0 | < 0 | < 0 | < 0 |
| O=C(O)c1cc(=O)[nH]c(=O)[nH]1 [Orotic acid] | < 0 | < 0 | < 0 | < 0 | < 0 | < 0 | < 0 | < 0 |
| CCN(c1ccccc1)c1cc(NC)[n+](C)c(C)n1 | < 0 | 4.43 | < 0 | < 0 | < 0 | < 0 | < 0 | < 0 |
| c1ccc([C@H]2CN3CCSC3=N2)cc1 [L-tetramisol] | < 0 | < 0 | < 0 | < 0 | < 0 | < 0 | < 0 | < 0 |
| CC(C)(C)c1cc(NC(=O)Nc2ccc(-c3cn4c(n3)sc3cc(OCCN5CCOCC5)ccc34)cc2)no1 [Quizartinib] | < 0 | < 0 | 4.57 | < 0 | 30.7 | 4.96 | 8.45 | < 0 |
| COc1ccc(C[C@@H]2c3cc(OC)c(OC)cc3CC[N@+]2(C)CCC(=O)OCCCCCOC(=O)CC[N@@+]2(C)CCc3cc(OC)c(OC)cc3[C@H]2Cc2ccc(OC)c(OC)c2)cc1OC [Cisatracurium besylate] | < 0 | < 0 | < 0 | < 0 | < 0 | < 0 | < 0 | < 0 |
| Cc1cccc(CN2CCN(C(c3ccccc3)c3ccc(Cl)cc3)CC2)c1 (configuration not stated) [Meclizine hydrochloride] | < 0 | < 0 | < 0 | < 0 | < 0 | 1.95 | < 0 | 9.61 |
| O=C(Nc1nc2ccccc2n1CCN1CCOCC1)c1cccc([N+](=O)[O-])c1 [IRAK-1-4 Inhibitor I] | < 0 | < 0 | < 0 | < 0 | < 0 | < 0 | < 0 | < 0 |
| N#C[C@@H]1C[C@@H]2C[C@@H]2N1C(=O)[C@@H](N)C12CC3CC(CC(O)(C3)C1)C2 [Saxagliptin] | < 0 | < 0 | < 0 | < 0 | < 0 | < 0 | < 0 | < 0 |
| COc1cc(C)c(Sc2cnc(NC(=O)c3ccc(CNC(C)C(C)(C)C)cc3)s2)cc1C(=O)N1CCN(C(C)=O)CC1 (configuration not stated) | < 0 | < 0 | < 0 | < 0 | 1.34 | < 0 | 6.61 | < 0 |
| CC(C)(C)OC(=O)N[C@H]1CCCCC/C=C\[C@@H]2C[C@@]2(C(=O)NS(=O)(=O)C2CC2)NC(=O)[C@@H]2C[C@@H](OC(=O)N3Cc4cccc(F)c4C3)CN2C1=O [Danoprevir] | < 0 | < 0 | < 0 | < 0 | < 0 | < 0 | 10.4 | < 0 |
| NS(=O)(=O)c1cc(Cl)c(Cl)c(S(N)(=O)=O)c1 [Diclofenamide] | < 0 | < 0 | < 0 | < 0 | < 0 | 7.8 | < 0 | < 0 |
| Nc1nc(N)c(N=O)c(OCC2CCCCC2)n1 | < 0 | 0.25 | < 0 | < 0 | < 0 | < 0 | < 0 | < 0 |

Quoted at random: 2 compounds from above, in no set order.

| SMILES | reduction in cell viability (M229P) [%] | reduction in cell viability (M229R) [%] | reduction in cell viability (M238P) [%] | reduction in cell viability (M238R) [%] | reduction in cell viability (M249P) [%] | reduction in cell viability (M249R) [%] | reduction in cell viability (UACC62P) [%] | reduction in cell viability (UACC62R) [%] |
| --- | --- | --- | --- | --- | --- | --- | --- | --- |
| COc1cc(C)c(Sc2cnc(NC(=O)c3ccc(CNC(C)C(C)(C)C)cc3)s2)cc1C(=O)N1CCN(C(C)=O)CC1 (configuration not stated) | < 0 | < 0 | < 0 | < 0 | 1.34 | < 0 | 6.61 | < 0 |
| O=C(Nc1nc2ccccc2n1CCN1CCOCC1)c1cccc([N+](=O)[O-])c1 [IRAK-1-4 Inhibitor I] | < 0 | < 0 | < 0 | < 0 | < 0 | < 0 | < 0 | < 0 |

Next part

| SMILES | reduction in cell viability (M229P) [%] | reduction in cell viability (M229R) [%] | reduction in cell viability (M238P) [%] | reduction in cell viability (M238R) [%] | reduction in cell viability (M249P) [%] | reduction in cell viability (M249R) [%] | reduction in cell viability (UACC62P) [%] | reduction in cell viability (UACC62R) [%] |
| --- | --- | --- | --- | --- | --- | --- | --- | --- |
| O=P(O)(O)C(O)(Cc1cccnc1)P(=O)(O)O [Risedronate sodium] | < 0 | < 0 | < 0 | < 0 | < 0 | 1.85 | < 0 | < 0 |
| CNC(=O)c1ccc(N2C(=S)N(c3ccc(C#N)c(C(F)(F)F)c3)C(=O)C2(C)C)cc1F | < 0 | < 0 | < 0 | < 0 | < 0 | < 0 | < 0 | < 0 |
| O=c1oc2cc(O)ccc2s1 [Tioxolone] | < 0 | < 0 | < 0 | < 0 | < 0 | < 0 | < 0 | < 0 |
| C/C(O)=C(\C#N)C(=O)Nc1ccc(C(F)(F)F)cc1 [Teriflunomide] | < 0 | < 0 | < 0 | < 0 | < 0 | < 0 | < 0 | < 0 |
| CC(C)(C)c1cc(C(=O)O)c(NC(=O)Nc2ccc3[nH]ncc3c2)s1 | < 0 | < 0 | < 0 | < 0 | < 0 | < 0 | < 0 | < 0 |
| Clc1cccc(Cl)c1NC1=NCCN1 [Clonidine] | < 0 | < 0 | < 0 | < 0 | < 0 | < 0 | 0.19 | < 0 |
| CN(C)C(=O)COC(=O)Cc1ccc(OC(=O)c2ccc(NC(=N)N)cc2)cc1 [Camostat mesylate] | < 0 | < 0 | < 0 | < 0 | < 0 | < 0 | < 0 | < 0 |
| CCOC(=O)N1CCN(/[N+]([O-])=N/Oc2ccc([N+](=O)[O-])cc2C#N)CC1 | < 0 | < 0 | < 0 | < 0 | < 0 | < 0 | 0.21 | < 0 |
| CCOC(=O)[C@@H](N)CCC(=O)N[C@@H](CSCc1ccccc1)C(=O)N[C@@H](C(=O)OCC)c1ccccc1 [Ezatiostat] | < 0 | < 0 | 5.65 | 61.7 | 10.9 | 20.5 | < 0 | < 0 |
| Cc1cccc(Nc2nc(N[C@@H]3CCCC[C@@H]3N)ncc2C(N)=O)c1 | < 0 | < 0 | < 0 | < 0 | < 0 | < 0 | < 0 | < 0 |
| CN[C@@H]1[C@H](O)[C@H](NC)[C@H]2O[C@@]3(O)C(=O)C[C@@H](C)O[C@H]3O[C@@H]2[C@H]1O [Spectinomycin hydrochloride] | < 0 | < 0 | < 0 | < 0 | < 0 | < 0 | < 0 | < 0 |
| CCN1CCN(CC(=O)Nc2ccc(-c3cccc4c(=O)cc(N5CCOCC5)oc34)c3sc4ccccc4c23)CC1 | < 0 | < 0 | < 0 | < 0 | < 0 | 3.63 | 5.02 | < 0 |
| CCn1nnc2c(N3CCOCC3)nc(-c3ccc(NC(=O)Nc4ccc(C(=O)N5CCN(C)CC5)cc4)cc3)nc21 | 62.8 | 53 | 59.1 | 62.7 | 69.3 | 61.9 | 64.4 | 62.4 |
| CC(=O)NC(C)c1ccc(Oc2ccc(OC(C)C)cc2)cc1 (configuration not stated) | < 0 | < 0 | < 0 | < 0 | < 0 | 0.22 | < 0 | < 0 |
| CCC[C@H](N[C@@H](C)C(=O)N1[C@H](C(=O)O)C[C@@H]2CCCC[C@@H]21)C(=O)OCC [Perindopril] | < 0 | < 0 | < 0 | < 0 | < 0 | < 0 | < 0 | < 0 |
| OC[C@H]1O[C@@H](Oc2cc(O)cc(/C=C/c3ccc(O)cc3)c2)[C@H](O)[C@@H](O)[C@@H]1O [Polydatin] | 3.35 | < 0 | < 0 | < 0 | < 0 | < 0 | < 0 | < 0 |
| NC(=O)c1ncn([C@@H]2O[C@H](CO)[C@@H](O)[C@H]2O)n1 [Ribavirin] | < 0 | < 0 | < 0 | < 0 | < 0 | 6.16 | < 0 | < 0 |
